# No constants are given. Whether binding was seen depends on the method and setting. Some entries that bind do so weakly or less than the wild type.
# How the values were obtained:
# streptavidin [1] = biological target: T1, streptavidin (Streptomyces avidinii, UniProt P22629); experiment: MALDI-TOF MS relative ion signal before and after SPR capture
# streptavidin [2] = biological target: T1, streptavidin; experiment: SPR, streptavidin immobilised, mixture of 10.0 µM Pep K and 10.0 µM Pep R
# streptavidin [3] = biological target: T1, streptavidin; experiment: SPR, streptavidin immobilised
# streptavidin [4] = biological target: T1, streptavidin; experiment: MALDI-TOF MS intensity ratio before and after SPR capture, against Pep K
binding (streptavidin [1]),binding (streptavidin [2]),binding (streptavidin [3]),binding (streptavidin [4]),Binder
binds,–,–,–,SGTSFHPQWIMVGRVATNSP (oxidized (residue not stated)) [oxidized Pep R]
–,binds,binds,binds,SGTSFHPQWIMVGRVATNSP [Pep R]
–,binds,binds,–,SGTSFHPQWIMVGKVATNSP [Pep K]
binds,–,–,–,SGTSFHPQWIMVGKVATNSP (oxidized (residue not stated)) [oxidized Pep K]

# Reference: patent US6887713B2, “Bioactive chip mass spectrometry” (Intrinsic Bioprobes, Inc., priority 2000, dated 2005)
